Experimental findings from patent US10718772B2 (USTAV ORGANICKE CHEMIE A BIOCHEMIE AKADEMIE VED CR, V.V.I., priority 2014, dated 2020) are described below.

The data set is described as follows: general procedure: Fmoc solid-phase peptide synthesis; 2-Chlortrityl chloride resin (Iris-Biotech); HOBt/DIC (printed 'HOBUDIC'). The note with it: conjugation step.

Consider “(21S,24S,27S,28S,32S,35S,36S)-1-((2,5-dioxopyrrolidin-1-yl)oxy)-28,36-dihydroxy-27,35-diisobutyl-21,24-diisopropyl-32-methyl-1,19,22,25,30,33-hexaoxo-4,7,10,13,16-pentaoxa-20,23,26,31,34-pentaazaoctatriacontan-38-oic acid, NHS-PEG5-pepstatin”, for which the conjugation yield was 33%. In addition, the “final HPLC purity” value (analytical HPLC) is “well above 99%”.
